Test: general procedure: Fmoc solid-phase peptide synthesis; Wang resins
Conditions: conjugation step, overall

N-acetyl-Cys(SH)-Ala-Ala-Ala-(Arg)7—CO2H
conjugation yield: 50%
